{"source": "PubChem BioAssay AID1259425 (University of Nebraska Medical Center, 2018)", "assay": "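Find knockdowns that reproduce the gene expression pattern seen when KSR1 is lost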 (primary screen)", "system": "HCT116 human colon cancer cells", "knock-down reagent": "siRNA pool against human genes, 50 nM siRNA", "read-out": "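mRNA of six signature genes measured together by branched-DNA assay after 50 nM siRNA pool, blank removed, divided by geometric mean of two housekeeping genes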", "scale": "BNIP3L mRNA: higher = more BNIP3L transcript after knockdown; NDRG1 mRNA: higher = more NDRG1 transcript after knockdown", "note": "The deposit covers about 14,000 reagents; shown is a part drawn at random. Not all columns of the deposit are shown. The record does not give: the time to read-out."}
{"gene knocked down": "RND3", "BNIP3L mRNA, set 1": 0.304, "NDRG1 mRNA, set 1": 0.25}
{"gene knocked down": "ADIPOR2", "BNIP3L mRNA, set 1": 0.0938, "NDRG1 mRNA, set 1": 0.33}
{"gene knocked down": "MUC5B", "BNIP3L mRNA, set 1": 0.191, "NDRG1 mRNA, set 1": 0.353}
{"gene knocked down": "CDIN1", "BNIP3L mRNA, set 1": 0.0993, "NDRG1 mRNA, set 1": 0.386}
{"gene knocked down": "NAA80", "BNIP3L mRNA, set 1": 0.0642, "NDRG1 mRNA, set 1": 0.0745}

Next part; the last 2 above are carried over.
{"gene knocked down": "CDIN1", "BNIP3L mRNA, set 1": 0.0993, "NDRG1 mRNA, set 1": 0.386}
{"gene knocked down": "NAA80", "BNIP3L mRNA, set 1": 0.0642, "NDRG1 mRNA, set 1": 0.0745}
{"gene knocked down": "CHST11", "BNIP3L mRNA, set 1": 0.126, "NDRG1 mRNA, set 1": 0.444}
{"gene knocked down": "CRYBA1", "BNIP3L mRNA, set 1": 0.058, "NDRG1 mRNA, set 1": 0.204}
{"gene knocked down": "CGB1", "BNIP3L mRNA, set 1": 0.0691, "NDRG1 mRNA, set 1": 0.0775}
{"gene knocked down": "SYNGR4", "BNIP3L mRNA, set 1": 0.296, "NDRG1 mRNA, set 1": 0.316}
{"gene knocked down": "RPL7A", "BNIP3L mRNA, set 1": 0.207, "NDRG1 mRNA, set 1": 0.261}
{"gene knocked down": "GJB6", "BNIP3L mRNA, set 1": 0.0997, "NDRG1 mRNA, set 1": 0.112}
{"gene knocked down": "FBXW2", "BNIP3L mRNA, set 1": 0.0805, "NDRG1 mRNA, set 1": 0.11}
